Data: article PMC11702208 (RSC Advances, 2025)

Tested on: SK-OV-3
Test: NCI cytotoxicity screen
Format: cell-based
Conditions: Homo sapiens

Structure (SMILES): COc1cc2ncnc(Nc3ccc(F)c(Cl)c3)c2cc1OCCCN1CCOCC1 [Gefitinib, reference compound]
- GI50: 630 nM
